Values from PubChem BioAssay AID1259425 (University of Nebraska Medical Center, 2018).
Assay: 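Seek colon cancer weak points whose silencing resembles KSR1 loss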 (primary screen). System: HCT116 human colon cancer cells. Reagent: siRNA pool against human genes, 50 nM siRNA. Read-out: 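mRNA of six signature genes measured together by branched-DNA assay after 50 nM siRNA pool, blank removed, divided by geometric mean of two housekeeping genes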. Scale: BNIP3L mRNA: higher = more BNIP3L transcript after knockdown.
The deposit covers about 14,000 reagents; below is a part drawn at random. Further read-outs or replicates are left out here. No sequences are given here. Not given: the time to read-out.

SLC52A2 (GeneID 79581) showed BNIP3L mRNA, set 1 = 0.394. For RFK (GeneID 55312), the entry reads BNIP3L mRNA, set 1 = 0.129. For EHBP1 (GeneID 23301) the deposit lists BNIP3L mRNA, set 1 = 0.209. With knock-down of KANK2 (GeneID 25959) the results were BNIP3L mRNA, set 1 = 0.0909. Against KDM7A (GeneID 80853) the deposit lists BNIP3L mRNA, set 1 = 0.141. Against RPL38 (GeneID 6169), the entry reads BNIP3L mRNA, set 1 = 0.119.

Depletion of WDR1 (GeneID 9948) gave: BNIP3L mRNA, set 1 = 0.207. After knock-down of CAMSAP2 (GeneID 23271) the results were BNIP3L mRNA, set 1 = 0.0647. Depletion of ALX4 (GeneID 60529) came out at: BNIP3L mRNA, set 1 = 0.103. After knock-down of DNM3 (GeneID 26052) the results were BNIP3L mRNA, set 1 = 0.304. ASTN2 (GeneID 23245) gave BNIP3L mRNA, set 1 = 0.188. With knock-down of VILL (GeneID 50853), the screen gave BNIP3L mRNA, set 1 = 0.0915.

BBOX1 (GeneID 8424) showed BNIP3L mRNA, set 1 = 0.194. CDK2AP2 (GeneID 10263) gave BNIP3L mRNA, set 1 = 0.241. CSE1L (GeneID 1434) gave BNIP3L mRNA, set 1 = 0.0674. Depletion of THUMPD2 (GeneID 80745) gave: BNIP3L mRNA, set 1 = 0.0818. H3-4 (GeneID 8290) gave BNIP3L mRNA, set 1 = 0.208. Silencing of PTGES (GeneID 9536) gave: BNIP3L mRNA, set 1 = 0.115.

With knock-down of USP6 (GeneID 9098) the results were BNIP3L mRNA, set 1 = 0.0341.
